Compound in the assay: CCc1cnccc1C(=O)Nc1cc2c(cc1F)NC(=O)CC2
Kind of assay: melting temperature shift (DMSO Tm minus MBE1-treated Tm) in cellular thermal proteome profiling; higher = less thermal stabilization by MBE1 (negative = stabilized by MBE1). The following applies: A375.

Sequences of proteins named here, by UniProt entry; tags and fusion partners are left off. A change or cut given only in a name is not applied to a line headed by its entry.
UniProt Q8IY22: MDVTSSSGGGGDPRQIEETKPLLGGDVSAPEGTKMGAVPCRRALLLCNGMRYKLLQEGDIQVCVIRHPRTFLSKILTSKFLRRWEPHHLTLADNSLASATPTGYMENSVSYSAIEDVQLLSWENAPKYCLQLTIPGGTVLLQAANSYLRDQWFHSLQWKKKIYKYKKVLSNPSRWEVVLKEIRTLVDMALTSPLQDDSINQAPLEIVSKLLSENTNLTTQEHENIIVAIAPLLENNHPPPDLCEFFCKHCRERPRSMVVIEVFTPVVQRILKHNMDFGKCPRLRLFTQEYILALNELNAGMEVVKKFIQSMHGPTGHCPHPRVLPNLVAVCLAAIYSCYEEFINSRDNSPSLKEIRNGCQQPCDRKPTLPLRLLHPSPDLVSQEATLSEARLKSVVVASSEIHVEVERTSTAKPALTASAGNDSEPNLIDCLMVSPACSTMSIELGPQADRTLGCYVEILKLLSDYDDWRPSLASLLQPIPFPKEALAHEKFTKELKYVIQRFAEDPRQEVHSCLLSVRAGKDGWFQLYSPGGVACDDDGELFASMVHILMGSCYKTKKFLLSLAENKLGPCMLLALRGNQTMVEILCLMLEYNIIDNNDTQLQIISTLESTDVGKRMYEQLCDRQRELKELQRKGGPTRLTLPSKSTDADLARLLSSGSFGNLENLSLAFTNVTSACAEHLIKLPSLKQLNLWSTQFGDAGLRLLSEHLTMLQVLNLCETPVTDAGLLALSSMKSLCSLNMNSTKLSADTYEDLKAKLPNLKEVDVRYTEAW
UniProt Q86WR7: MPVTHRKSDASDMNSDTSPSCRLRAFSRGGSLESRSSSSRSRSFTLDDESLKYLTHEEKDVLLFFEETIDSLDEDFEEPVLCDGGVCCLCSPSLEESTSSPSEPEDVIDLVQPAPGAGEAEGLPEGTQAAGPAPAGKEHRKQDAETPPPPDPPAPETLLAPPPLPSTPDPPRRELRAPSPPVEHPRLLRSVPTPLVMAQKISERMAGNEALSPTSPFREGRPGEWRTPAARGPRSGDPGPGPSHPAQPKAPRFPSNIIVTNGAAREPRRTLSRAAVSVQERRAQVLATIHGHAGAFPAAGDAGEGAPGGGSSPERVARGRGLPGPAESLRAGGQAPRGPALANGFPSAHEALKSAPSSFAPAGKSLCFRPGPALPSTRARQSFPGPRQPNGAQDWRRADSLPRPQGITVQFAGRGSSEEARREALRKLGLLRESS
UniProt Q8N5M9: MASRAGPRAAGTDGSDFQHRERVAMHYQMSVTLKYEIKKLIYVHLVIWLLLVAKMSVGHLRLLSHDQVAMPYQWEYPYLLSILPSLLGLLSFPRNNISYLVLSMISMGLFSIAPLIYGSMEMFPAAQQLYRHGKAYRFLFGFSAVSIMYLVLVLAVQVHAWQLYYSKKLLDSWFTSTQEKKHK
UniProt Q86XP1: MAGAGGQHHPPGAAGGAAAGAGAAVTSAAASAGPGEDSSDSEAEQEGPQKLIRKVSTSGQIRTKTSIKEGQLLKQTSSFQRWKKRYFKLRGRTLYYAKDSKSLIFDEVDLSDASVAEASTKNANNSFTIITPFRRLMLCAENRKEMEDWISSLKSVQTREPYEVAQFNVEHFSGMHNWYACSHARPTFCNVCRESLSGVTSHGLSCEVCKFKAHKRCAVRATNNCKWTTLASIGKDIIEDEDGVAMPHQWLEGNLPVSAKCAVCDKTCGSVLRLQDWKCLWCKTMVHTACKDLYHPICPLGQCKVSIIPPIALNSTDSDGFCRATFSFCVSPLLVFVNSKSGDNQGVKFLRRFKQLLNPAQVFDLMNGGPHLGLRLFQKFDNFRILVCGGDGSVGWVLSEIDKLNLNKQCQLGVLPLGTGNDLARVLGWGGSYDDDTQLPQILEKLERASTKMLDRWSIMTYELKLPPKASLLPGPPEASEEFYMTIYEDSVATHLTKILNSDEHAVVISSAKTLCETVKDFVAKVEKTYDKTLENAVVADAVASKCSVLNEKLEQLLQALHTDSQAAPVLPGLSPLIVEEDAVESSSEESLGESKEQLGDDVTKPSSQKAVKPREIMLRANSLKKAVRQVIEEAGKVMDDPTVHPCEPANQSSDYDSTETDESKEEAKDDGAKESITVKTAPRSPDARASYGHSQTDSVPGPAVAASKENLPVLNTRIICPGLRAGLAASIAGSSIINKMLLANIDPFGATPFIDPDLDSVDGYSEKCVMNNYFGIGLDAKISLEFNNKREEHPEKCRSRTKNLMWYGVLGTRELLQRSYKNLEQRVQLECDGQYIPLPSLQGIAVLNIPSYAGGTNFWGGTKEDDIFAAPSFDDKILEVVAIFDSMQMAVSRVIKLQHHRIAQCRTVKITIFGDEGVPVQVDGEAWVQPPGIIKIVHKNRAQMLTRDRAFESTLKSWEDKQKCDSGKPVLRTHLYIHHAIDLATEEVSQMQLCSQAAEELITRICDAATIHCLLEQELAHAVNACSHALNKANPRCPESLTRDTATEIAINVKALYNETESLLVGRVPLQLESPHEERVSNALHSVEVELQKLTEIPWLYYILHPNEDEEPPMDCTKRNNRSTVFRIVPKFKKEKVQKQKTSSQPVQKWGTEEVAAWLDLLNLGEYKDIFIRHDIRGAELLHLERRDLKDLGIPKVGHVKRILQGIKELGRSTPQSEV
UniProt Q8N806: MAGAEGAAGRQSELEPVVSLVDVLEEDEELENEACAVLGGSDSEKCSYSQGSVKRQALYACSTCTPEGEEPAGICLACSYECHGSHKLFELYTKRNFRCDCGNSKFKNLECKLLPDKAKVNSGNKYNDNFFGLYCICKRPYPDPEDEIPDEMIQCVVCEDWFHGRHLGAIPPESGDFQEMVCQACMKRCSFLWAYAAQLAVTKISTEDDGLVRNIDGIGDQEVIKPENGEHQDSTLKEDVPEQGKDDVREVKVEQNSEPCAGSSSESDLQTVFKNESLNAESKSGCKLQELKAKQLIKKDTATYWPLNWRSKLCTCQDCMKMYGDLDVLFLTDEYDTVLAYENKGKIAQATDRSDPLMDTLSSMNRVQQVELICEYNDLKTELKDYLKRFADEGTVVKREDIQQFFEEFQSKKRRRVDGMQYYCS
UniProt Q86YH6: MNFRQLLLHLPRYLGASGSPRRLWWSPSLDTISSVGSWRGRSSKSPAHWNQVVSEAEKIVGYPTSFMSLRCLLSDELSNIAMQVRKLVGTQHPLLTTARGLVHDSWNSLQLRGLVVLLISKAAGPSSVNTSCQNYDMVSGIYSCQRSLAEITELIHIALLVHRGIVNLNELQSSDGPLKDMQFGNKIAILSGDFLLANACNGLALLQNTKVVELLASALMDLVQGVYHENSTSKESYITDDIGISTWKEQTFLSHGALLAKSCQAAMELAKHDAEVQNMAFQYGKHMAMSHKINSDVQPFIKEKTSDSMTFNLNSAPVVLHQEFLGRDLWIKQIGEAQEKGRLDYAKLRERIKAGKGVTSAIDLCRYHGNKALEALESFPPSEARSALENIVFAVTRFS
UniProt Q8N1G4: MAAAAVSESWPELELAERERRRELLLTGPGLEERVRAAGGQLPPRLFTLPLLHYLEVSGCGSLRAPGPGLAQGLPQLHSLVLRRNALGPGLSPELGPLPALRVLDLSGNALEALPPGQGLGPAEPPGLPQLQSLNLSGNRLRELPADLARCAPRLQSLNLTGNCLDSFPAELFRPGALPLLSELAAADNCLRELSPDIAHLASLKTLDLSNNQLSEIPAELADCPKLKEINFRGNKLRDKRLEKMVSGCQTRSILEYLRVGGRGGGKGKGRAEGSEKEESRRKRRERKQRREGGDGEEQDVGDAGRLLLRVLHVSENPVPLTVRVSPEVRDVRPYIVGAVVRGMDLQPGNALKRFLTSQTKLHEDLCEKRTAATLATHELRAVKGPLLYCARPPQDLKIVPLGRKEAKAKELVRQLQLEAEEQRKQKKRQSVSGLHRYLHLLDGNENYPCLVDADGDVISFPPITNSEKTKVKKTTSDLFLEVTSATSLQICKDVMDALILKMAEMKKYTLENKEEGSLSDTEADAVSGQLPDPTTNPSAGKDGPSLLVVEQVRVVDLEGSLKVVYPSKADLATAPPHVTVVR
UniProt Q8IZ73: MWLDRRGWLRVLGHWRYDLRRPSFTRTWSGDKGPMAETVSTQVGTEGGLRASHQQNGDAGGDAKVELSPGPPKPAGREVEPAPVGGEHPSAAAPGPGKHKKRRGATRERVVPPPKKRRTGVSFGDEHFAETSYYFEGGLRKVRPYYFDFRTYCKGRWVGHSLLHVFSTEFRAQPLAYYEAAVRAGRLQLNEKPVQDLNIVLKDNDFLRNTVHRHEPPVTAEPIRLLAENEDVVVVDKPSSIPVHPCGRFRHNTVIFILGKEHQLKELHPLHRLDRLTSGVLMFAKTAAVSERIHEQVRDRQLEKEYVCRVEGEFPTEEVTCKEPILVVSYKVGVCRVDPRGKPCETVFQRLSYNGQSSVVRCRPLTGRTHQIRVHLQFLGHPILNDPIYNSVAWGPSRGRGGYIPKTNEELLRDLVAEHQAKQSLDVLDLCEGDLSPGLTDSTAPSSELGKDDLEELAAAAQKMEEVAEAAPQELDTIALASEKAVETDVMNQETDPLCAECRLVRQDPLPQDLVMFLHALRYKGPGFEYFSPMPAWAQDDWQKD
UniProt Q8N3F8: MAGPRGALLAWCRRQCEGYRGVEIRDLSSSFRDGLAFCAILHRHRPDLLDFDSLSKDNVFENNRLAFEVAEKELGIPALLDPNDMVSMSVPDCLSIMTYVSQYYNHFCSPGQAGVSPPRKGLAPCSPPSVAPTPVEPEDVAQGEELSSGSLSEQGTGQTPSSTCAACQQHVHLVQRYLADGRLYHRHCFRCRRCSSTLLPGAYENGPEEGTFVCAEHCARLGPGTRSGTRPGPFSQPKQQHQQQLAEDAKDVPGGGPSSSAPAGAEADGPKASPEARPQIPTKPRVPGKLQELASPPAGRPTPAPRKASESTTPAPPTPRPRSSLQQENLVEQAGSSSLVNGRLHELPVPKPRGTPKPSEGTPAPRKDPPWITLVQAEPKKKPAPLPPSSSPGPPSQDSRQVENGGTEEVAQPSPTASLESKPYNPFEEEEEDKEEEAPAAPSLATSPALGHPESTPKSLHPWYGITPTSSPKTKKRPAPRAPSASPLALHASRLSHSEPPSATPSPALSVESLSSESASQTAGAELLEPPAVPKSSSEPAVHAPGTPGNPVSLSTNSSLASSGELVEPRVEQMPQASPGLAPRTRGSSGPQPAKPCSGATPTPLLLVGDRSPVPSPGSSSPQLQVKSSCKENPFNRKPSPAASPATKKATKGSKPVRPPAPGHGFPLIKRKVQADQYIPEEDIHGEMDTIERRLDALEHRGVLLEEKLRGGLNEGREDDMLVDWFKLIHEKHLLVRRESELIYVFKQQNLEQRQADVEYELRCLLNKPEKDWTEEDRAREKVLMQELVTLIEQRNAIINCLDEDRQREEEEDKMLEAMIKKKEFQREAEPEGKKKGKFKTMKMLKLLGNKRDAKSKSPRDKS
UniProt Q8N5L8: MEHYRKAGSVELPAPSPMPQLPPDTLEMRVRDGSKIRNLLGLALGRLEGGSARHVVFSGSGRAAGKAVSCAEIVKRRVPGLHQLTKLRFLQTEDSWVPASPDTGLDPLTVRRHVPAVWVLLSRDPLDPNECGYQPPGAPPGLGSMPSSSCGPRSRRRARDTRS
UniProt Q8IY31, whole entry: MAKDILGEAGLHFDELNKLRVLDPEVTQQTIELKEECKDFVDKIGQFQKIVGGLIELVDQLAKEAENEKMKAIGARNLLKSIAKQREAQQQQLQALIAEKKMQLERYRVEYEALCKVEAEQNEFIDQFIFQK
UniProt Q8N5M4: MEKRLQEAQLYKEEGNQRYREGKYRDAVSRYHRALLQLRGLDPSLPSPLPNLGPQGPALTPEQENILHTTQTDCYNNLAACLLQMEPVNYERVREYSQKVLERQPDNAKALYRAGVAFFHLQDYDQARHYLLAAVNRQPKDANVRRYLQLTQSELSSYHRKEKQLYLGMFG
UniProt Q8IY47: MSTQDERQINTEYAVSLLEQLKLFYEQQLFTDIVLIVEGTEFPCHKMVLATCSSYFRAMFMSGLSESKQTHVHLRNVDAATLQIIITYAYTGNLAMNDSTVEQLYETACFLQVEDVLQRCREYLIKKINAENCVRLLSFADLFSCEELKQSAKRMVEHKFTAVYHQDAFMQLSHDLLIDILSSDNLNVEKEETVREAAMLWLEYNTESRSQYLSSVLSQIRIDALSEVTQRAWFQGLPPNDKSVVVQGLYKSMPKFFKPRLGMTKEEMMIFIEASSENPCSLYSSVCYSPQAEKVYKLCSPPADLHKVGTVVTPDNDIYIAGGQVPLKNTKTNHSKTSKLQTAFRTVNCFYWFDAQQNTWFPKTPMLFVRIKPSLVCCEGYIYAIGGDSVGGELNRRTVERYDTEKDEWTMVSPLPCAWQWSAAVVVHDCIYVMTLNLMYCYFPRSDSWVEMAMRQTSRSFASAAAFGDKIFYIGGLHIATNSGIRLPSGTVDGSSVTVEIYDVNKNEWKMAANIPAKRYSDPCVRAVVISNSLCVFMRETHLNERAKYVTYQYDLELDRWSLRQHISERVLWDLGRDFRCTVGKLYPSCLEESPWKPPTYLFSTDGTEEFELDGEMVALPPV

This note sets out measurements from the supplement of paper PMC12595434, “Development of retinoid nuclear receptor pathway antagonists through targeting aldehyde dehydrogenase 1A3” (iScience, 2025).

The list shows a part of the results. This is a noisy data set.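 Tm was set to 64 °C where no melting was found, and many curves are irregular.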

Regarding UniProt Q86X95, the melting temperature shift (MBE1 concentration: 100 nM) was -4.24 °C and the melting temperature shift (MBE1 concentration: 1 uM) was -5.1 °C.
On the same counts, the results for BRSK2 (UniProt Q8IWQ3) are 1.19 °C and 1.49 °C.
In the same order, the values of NCAPG2 (UniProt Q86XI2) are -0.92 °C and -0.356 °C.
On the same counts, the results for SCYL3 (UniProt Q8IZE3) are 2.34 °C and 1.19 °C.
For the target SIRT2 (UniProt Q8IXJ6), the melting temperature shift was 0.653 °C (MBE1 concentration: 100 nM) and 0.22 °C (MBE1 concentration: 1 uM).
UniProt Q8IWI9: the melting temperature shift is, setting by setting: (MBE1 concentration: 100 nM) -0.628 °C; (MBE1 concentration: 1 uM) -0.782 °C.
In the same order, the values of CMIP (UniProt Q8IY22) are -1.49 °C and 0.214 °C.
On the same counts, the results for GSPT2 (UniProt Q8IYD1) are -0.402 °C and 0.717 °C.
On the same counts, the results for CRLF3 (UniProt Q8IUI8) are 0.0188 °C and -0.0183 °C.
As to FAM134C (UniProt Q86VR2), the melting temperature shift is -1.64 °C (MBE1 concentration: 100 nM) and 1.19 °C (MBE1 concentration: 1 uM).
As to UniProt Q8IV63, the melting temperature shift runs as follows: (MBE1 concentration: 100 nM) -1.98 °C; (MBE1 concentration: 1 uM) -3.48 °C.
In the same order, the values of PROSER2 (UniProt Q86WR7) are 0.366 °C and -0.653 °C.
In the same order, the values of UniProt Q8N5M9 are -1.76 °C and -0.413 °C.
In the same order, the values of CLASRP (UniProt Q8N2M8) are -0.739 °C and -0.278 °C.
On to UniProt Q86XP1, for which the melting temperature shift is -0.08 °C (MBE1 concentration: 100 nM) and 0.414 °C (MBE1 concentration: 1 uM).
Turning to UBR7 (UniProt Q8N806), the melting temperature shift reads like this: (MBE1 concentration: 100 nM) 0.177 °C; (MBE1 concentration: 1 uM) -0.171 °C.
In the same order, the values of PM20D2 (UniProt Q8IYS1) are -1.73 °C and 0.556 °C.
Turning to COMMD2 (UniProt Q86X83), the melting temperature shift is, setting by setting: (MBE1 concentration: 100 nM) 0.592 °C; (MBE1 concentration: 1 uM) 0.22 °C.
For PDSS2 (UniProt Q86YH6), the melting temperature shift (MBE1 concentration: 100 nM) is -2.2 °C and the melting temperature shift (MBE1 concentration: 1 uM) turned out to be 0.469 °C.
On the same counts, the results for UniProt Q8IXT5 are 1.04 °C and 2.65 °C.
On the same counts, the results for HPS6 (UniProt Q86YV9) are -0.79 °C and -0.494 °C.
As to UniProt Q8IXK0, the melting temperature shift was -0.378 °C (MBE1 concentration: 100 nM) and -0.98 °C (MBE1 concentration: 1 uM).
On the same counts, the results for XRN1 (UniProt Q8IZH2) are -0.971 °C and -0.562 °C.
In the case of VPS8 (UniProt Q8N3P4), the melting temperature shift reads like this: (MBE1 concentration: 100 nM) 1.83 °C; (MBE1 concentration: 1 uM) 1.53 °C.
On the same counts, the results for LRRC47 (UniProt Q8N1G4) are -0.396 °C and -0.49 °C.
For METTL13 (UniProt Q8N6R0), the melting temperature shift runs as follows: (MBE1 concentration: 100 nM) -1.02 °C; (MBE1 concentration: 1 uM) -0.0659 °C.
For the target EXOC8 (UniProt Q8IYI6), the melting temperature shift (MBE1 concentration: 100 nM) is -1.12 °C and the melting temperature shift (MBE1 concentration: 1 uM) is -1.23 °C.
In the case of UniProt Q8N0Z3, the melting temperature shift (MBE1 concentration: 100 nM) was 1.06 °C and the melting temperature shift (MBE1 concentration: 1 uM) was -0.403 °C.
On the same counts, the results for THOC6 (UniProt Q86W42) are 0.171 °C and -0.0916 °C.
In the same order, the values of EMC1 (UniProt Q8N766) are -0.812 °C and 0.248 °C.
In the same order, the values of ARHGAP12 (UniProt Q8IWW6) are 0.635 °C and -0.434 °C.
Consider UniProt Q8N5F7, for which the melting temperature shift is -4.47 °C (MBE1 concentration: 100 nM) and 2.86 °C (MBE1 concentration: 1 uM).
In the same order, the values of PARG (UniProt Q86W56) are 0.647 °C and 0.672 °C.
In the case of UniProt Q86VP3, the melting temperature shift is -3.42 °C (MBE1 concentration: 100 nM) and -6.02 °C (MBE1 concentration: 1 uM).
In the same order, the values of BPHL (UniProt Q86WA6) are -0.641 °C and -0.397 °C.
As to C2CD5 (UniProt Q86YS7), the melting temperature shift (MBE1 concentration: 100 nM) is -0.147 °C and the melting temperature shift (MBE1 concentration: 1 uM) came to 0.287 °C.
On the same counts, the results for RPUSD2 (UniProt Q8IZ73) are -0.757 °C and -0.763 °C.
On the same counts, the results for LMTK2 (UniProt Q8IWU2) are -0.657 °C and 0.58 °C.
On the same counts, the results for MICALL1 (UniProt Q8N3F8) are 0.672 °C and 0.702 °C.
Regarding UniProt Q86YR5, the melting temperature shift reads like this: (MBE1 concentration: 100 nM) -1.07 °C; (MBE1 concentration: 1 uM) -0.365 °C.
On the same counts, the results for NUP93 (UniProt Q8N1F7) are 1.03 °C and 0.69 °C.
On the same counts, the results for SKA3 (UniProt Q8IX90) are -0.179 °C and 0.122 °C.
In the same order, the values of ABHD12 (UniProt Q8N2K0) are -0.912 °C and 0.371 °C.
As for RPP25L (UniProt Q8N5L8), the melting temperature shift reads like this: (MBE1 concentration: 100 nM) -4.78 °C; (MBE1 concentration: 1 uM) -5.24 °C.
On the same counts, the results for UniProt Q8IY31 are -0.0305 °C and 0.147 °C.
On the same counts, the results for CHPF (UniProt Q8IZ52) are 1.5 °C and 0.605 °C.
On the same counts, the results for TTC9C (UniProt Q8N5M4) are -0.104 °C and -0.666 °C.
In the case of LRRC8A (UniProt Q8IWT6), the melting temperature shift was -0.637 °C (MBE1 concentration: 100 nM) and 0.538 °C (MBE1 concentration: 1 uM).
On the same counts, the results for KBTBD2 (UniProt Q8IY47) are -0.383 °C and -0.221 °C.
